Paper PMC6698652, “Boundaries of eliminated heterochromatin of Tetrahymena are positioned by the DNA-binding protein Ltl1”
Construct, isoform or probe ends are uncertain for at least one entry. At least one verdict rests on a figure or table, not on a statement of the authors. Protein sequences can lack the tags named with them.

Molecular target: T1, MBP-Ltl1 (Tetrahymena thermophila) (UniProt I7MGR7)
T1 sequence (looked up, limits assumed): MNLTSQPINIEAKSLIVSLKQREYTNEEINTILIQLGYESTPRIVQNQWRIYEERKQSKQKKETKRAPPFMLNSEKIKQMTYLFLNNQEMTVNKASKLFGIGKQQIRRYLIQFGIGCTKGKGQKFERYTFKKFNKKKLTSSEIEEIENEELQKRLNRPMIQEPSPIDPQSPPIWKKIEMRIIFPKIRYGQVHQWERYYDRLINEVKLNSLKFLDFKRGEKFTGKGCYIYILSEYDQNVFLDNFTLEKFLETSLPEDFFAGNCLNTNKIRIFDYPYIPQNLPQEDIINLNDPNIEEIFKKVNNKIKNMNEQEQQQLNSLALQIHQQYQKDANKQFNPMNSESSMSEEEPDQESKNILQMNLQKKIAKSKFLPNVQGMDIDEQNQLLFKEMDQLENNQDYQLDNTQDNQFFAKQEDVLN
Assay: EMSA
Conditions: EMSA as in Carle et al. (ref 20), binding buffer and temperature not given, probes annealed in 10 mM Tris pH 7.5, 5% glycerol, 100 mM KCl, recombinant protein, label: 5' 32P

[1] = 5 uM poly-dGdC competitor, Kd not significantly altered

| Sequence | binding result [1] | binding result |
| --- | --- | --- |
| GAAATTAATATAATTATAATTTTAAACAGTGTAAAACCCAAAAAGCTA (double strand) [R IES left flank -40/-88 ds (R_IES_EMSA_probe2)] | binds | – |
| TTTATTAATCAAAAAGGGGGTAAATAATAA (double strand) [M IES left flank ds] | – | binds |
| TTATTTGATTAATTAATTTTATTTACGGTAAAGGTTTATATATTAAGGCCACAATATAC (double strand) [D IES left flank -30/-88 ds (IESD_EMSA_probe1)] | binds | – |
